Measured data: PubChem BioAssay AID504791 (Drosophila RNAi Screening Center, 2011)
The deposit covers about 23,000 reagents; shown is a random part of those that have a named target and a result. Of all reagents, 199 (0.86%) got an active call. 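Plate-scaled ratios behind the calls are not deposited; printed light signals are raw; many rows marked increased or decreased are still called inactive.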 The record does not give: the direction of the score.

Assay: 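Factors in Argonaute-based small RNA production and activity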 (primary screen)
Cell system: Drosophila S2-derived reporter cells
Reagents: long dsRNA against Drosophila genes, about 150-250 ng dsRNA per well (siRNA assay); about 80-120 ng (miRNA assay)
Timing: about 5 days (siRNA assay); about 4 days (miRNA assay)
Challenge: copper sulfate induction of reporters: 25 µM (siRNA assay); 200 mM stated (miRNA assay), 1-2 days before reading
Measurement: 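Per-well ratio of Renilla over firefly light, expressed relative to that plate's average ratio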
Units: stable assay Renilla, run 1 in luminescence; stable assay firefly, run 1 in luminescence
Call rule: 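a well was a first-pass pick when its plate-scaled ratio rose above 1.5 (siRNA assay) or 1.6 (miRNA assay), or dropped below 0.6; a gene counted only if two separate dsRNAs agreed on retest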

For retinin [DRSC09940] the deposit lists stable assay Renilla, run 1 = 8775; stable assay firefly, run 1 = 3.73e5; inactive. eEF2 (eukaryotic translation elongation factor 2) [DRSC03737] showed stable assay Renilla, run 1 = 4811; stable assay firefly, run 1 = 3.42e5; inactive. After knock-down of fng (fringe) [DRSC11455] the results were stable assay Renilla, run 1 = 5963; stable assay firefly, run 1 = 3.93e5; inactive. With knock-down of fng (fringe) [DRSC11887] the results were stable assay Renilla, run 1 = 8950; stable assay firefly, run 1 = 3.39e5; inactive. With knock-down of fng (fringe) [DRSC21935], the record shows stable assay Renilla, run 1 = 9318; stable assay firefly, run 1 = 6.06e5; inactive. After knock-down of mib2 (mind bomb 2) [DRSC02623], the record shows stable assay Renilla, run 1 = 12817; stable assay firefly, run 1 = 1.52e6; inactive.

Depletion of CG14780 [DRSC18566] resulted in: stable assay Renilla, run 1 = 5283; stable assay firefly, run 1 = 3.17e5; inactive. Knock-down of Phae2 (Phaedra 2) [DRSC02555] gave: stable assay Renilla, run 1 = 6740; stable assay firefly, run 1 = 4.39e5; inactive. Knock-down of AspRS-m (Aspartyl-tRNA synthetase, mitochondrial) [DRSC02646] came out at: stable assay Renilla, run 1 = 6258; stable assay firefly, run 1 = 3.77e5; inactive. CG17724 [DRSC06687] gave stable assay Renilla, run 1 = 8655; stable assay firefly, run 1 = 5.97e5; inactive. v (vermilion) [DRSC20383] showed stable assay Renilla, run 1 = 7818; stable assay firefly, run 1 = 5.80e5; inactive. Against BBS9 (Bardet-Biedl syndrome 9) [DRSC04257], the entry reads stable assay Renilla, run 1 = 7522; stable assay firefly, run 1 = 5.83e5; inactive.

2 entries from above, showing only “stable assay Renilla, run 1”.
fng (fringe) [DRSC21935] = 9318
mib2 (mind bomb 2) [DRSC02623] = 12817
